pEC50: −log10 of the molar value. Structures were worked out from names or drawings and are uncertain.
Legend:
[1] = biological target: F508del/F508del CFTR (Homo sapiens, UniProt P13569, DEL508-508); experiment: Trans-Epithelial Current Clamp (TECC) assay using primary human bronchial epithelial cells; conditions: for Emax (% Dual): maximum percent activity relative to positive control (co-corrector 0.15 μM + potentiator 0.45 μM = 100%); for pEC50: primary hBE cells F508del/F508del, test corrector with co-corrector and potentiator, 18-24 hours, equivalent CFTR current
Excerpt: A cell-based assay was developed using the primary human bronchial epithelial cells (hBE cells) with F508del/F508del CFTR and other mutations.
Primary human bronchial epithelial (hBE) cells from CFTR patients with homozygous F508del/F508del mutation were expanded from 1×10^6 to 250×10^6 cells (Neuberger, T et al., 2011, Methods Mol Biol 741:39-54). For this purpose, cells isolated from CF patients with the homozygous mutation, procured from the CF center tissue procurement and cell culture core at the Marsico Lung Institute at UNC (Randell), the Cystic Fibrosis translational research center at McGill University (University), and Rosalind Franklin University Medical School (RFUMS) were seeded onto 24 well Corning (Cat #3378) filter plates that were coated with 3T3 conditioned media and grown at an air-liquid interface for 35 days using an Ultroser® G supplemented differentiation media. All the primary human bronchial epithelial cells were collected in accordance with institutional review board approval protocols. Apical surface mucus was removed 72 hours before the experiment by incubating the apical surface of the cells for 30 minutes with 3 mM dithiothreitol (DTT) prepared in Dulbecco's phosphate buffered saline (DPBS) with Ca^2+ and Mg^2+. This was followed with aspiration of the mucus from the apical surface along with DPBS. The apical surface was re-washed with phosphate buffered saline (PBS) incubated for 30 minutes followed with aspiration. […] This chronic treatment with the potentiator helped eliminate any interaction that might happen with CFTR modulators (correctors and potentiators) and thereby determined the true efficacy of the modulator combinations reflective of clinical relevance.
The assay uses a Transepithelial Current Clamp (TECC) (Vu, C B et al., 2017; J Med Chem 60:458-473) instrument that can measure the functionality of the mutated channel by measuring the equivalent CFTR current (IEQ) generated by the polarized primary epithelial cells. […] Each measured VT values were corrected for the electrode offset potential measured using buffer alone in a separate plate, and each measured RT values were then corrected for the combined solution series and empty filter resistances. […] The area under the curve (AUC) for the time period between the forskolin peak IEQ response and at the time of bumetanide addition was also calculated using a one-third trapezoid method, in addition to calculating the IEQ. The assay was run in a 24-well format and all 24-wells were measured at the same time point giving a higher throughput for this assay. […]

Chains of the proteins cited; added tags and fusions are not shown. A line that says so, or that is headed by a name, gives the form on record, which may keep a tag or linker.
UniProt P13569, with tags, fused parts or gaps DEL508-508: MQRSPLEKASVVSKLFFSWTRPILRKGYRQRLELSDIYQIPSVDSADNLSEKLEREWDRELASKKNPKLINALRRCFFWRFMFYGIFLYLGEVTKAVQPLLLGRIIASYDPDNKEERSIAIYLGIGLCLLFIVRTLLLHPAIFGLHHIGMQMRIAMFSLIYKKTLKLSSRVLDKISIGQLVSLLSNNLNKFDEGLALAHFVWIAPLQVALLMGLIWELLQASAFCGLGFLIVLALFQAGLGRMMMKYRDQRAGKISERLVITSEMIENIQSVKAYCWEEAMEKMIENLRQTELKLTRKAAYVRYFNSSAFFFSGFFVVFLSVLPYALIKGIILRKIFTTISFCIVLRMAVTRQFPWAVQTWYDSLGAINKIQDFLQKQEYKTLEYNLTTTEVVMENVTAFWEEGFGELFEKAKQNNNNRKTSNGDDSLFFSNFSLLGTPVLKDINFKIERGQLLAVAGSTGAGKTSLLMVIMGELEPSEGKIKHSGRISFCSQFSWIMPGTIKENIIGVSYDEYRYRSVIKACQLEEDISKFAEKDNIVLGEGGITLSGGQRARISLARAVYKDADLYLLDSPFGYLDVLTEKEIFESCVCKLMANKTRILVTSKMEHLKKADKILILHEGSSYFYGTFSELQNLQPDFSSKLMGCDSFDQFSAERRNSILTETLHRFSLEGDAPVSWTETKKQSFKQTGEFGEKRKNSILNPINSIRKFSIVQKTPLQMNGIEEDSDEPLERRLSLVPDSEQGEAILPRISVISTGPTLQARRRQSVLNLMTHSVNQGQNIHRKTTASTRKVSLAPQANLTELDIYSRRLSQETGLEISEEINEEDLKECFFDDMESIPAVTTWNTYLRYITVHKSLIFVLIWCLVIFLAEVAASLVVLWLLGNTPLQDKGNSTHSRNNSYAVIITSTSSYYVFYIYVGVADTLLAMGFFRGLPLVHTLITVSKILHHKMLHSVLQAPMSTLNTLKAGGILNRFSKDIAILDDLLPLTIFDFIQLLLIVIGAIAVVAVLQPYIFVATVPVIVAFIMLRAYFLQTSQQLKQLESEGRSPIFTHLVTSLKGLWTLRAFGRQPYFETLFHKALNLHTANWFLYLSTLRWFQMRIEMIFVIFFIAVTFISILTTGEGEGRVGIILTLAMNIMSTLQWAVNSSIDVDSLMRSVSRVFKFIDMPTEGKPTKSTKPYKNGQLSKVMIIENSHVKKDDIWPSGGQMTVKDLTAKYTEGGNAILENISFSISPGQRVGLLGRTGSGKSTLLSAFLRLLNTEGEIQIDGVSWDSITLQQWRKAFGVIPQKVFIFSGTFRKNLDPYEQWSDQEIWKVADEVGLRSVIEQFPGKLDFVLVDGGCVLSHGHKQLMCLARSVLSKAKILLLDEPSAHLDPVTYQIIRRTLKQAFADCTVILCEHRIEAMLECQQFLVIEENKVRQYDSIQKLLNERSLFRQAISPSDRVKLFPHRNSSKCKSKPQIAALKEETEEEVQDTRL

[2] = biological target: F508delCFTR (Homo sapiens, UniProt P13569, DEL508-508); experiment: Cell Surface Expression-Horse Radish Peroxidase (CSE-HRP) assay in CFBE41o-F508delCFTR-HRP cells
Procedure: A cellular assay for measuring the F508delCFTR cell surface expression after correction with test compounds either without or with a co-corrector (2 μM of 3-[(2R,4R)-4-({[1-(2,2-difluoro-1,3-benzodioxol-5-yl)cyclopropyl]carbonyl}amino)-7-methoxy-3,4-dihydro-2H-chromen-2-yl]benzoic acid), was developed in human lung derived epithelial cell line (CFBE41o-) (Veit G et al, (2012) Mol Biol Cell. 23(21): 4188-4202). The development was achieved by expressing the F508delCFTR mutation along with a horseradish peroxidase (HRP) in the fourth exofacial loop, and then measuring the HRP activity using luminescence readout from these cells, CFBE41o-F508delCFTR-HIRP, that were incubated overnight with the test corrector compounds, either without or with the co-corrector. […] Post incubation, the plates were washed 5× times with Dulbecco's phosphate buffered saline (DPBS), followed by the addition of the HRP substrate, luminol (50 μL), and measuring the HRP activity using luminescence readout on EnVision® Multilabel Plate Reader (Perkin Elmer; product number 2104-0010). The raw counts from the experiment were analyzed using Accelrys® Assay Explorer v3.3. […]

Structure (SMILES) | Emax (% Dual) [1] | pEC50 [1] | Maximum % activity (without co-corrector) ([2]; normalized to on-plate positive control) | pEC50 ([2]; read-out: EC50 (without co-corrector), CFBE41o-F508delCFTR-HRP cells, 18-24 hours at 33° C.)
COc1ccc(C)cc1C1(C(=O)NS(=O)(=O)c2cccc3nc(C)ccc23)CC2(COC2)CO1 (stereo not drawn) | 154 % Dual | 7.30 | 320% | 5.14
COc1ccc(C)cc1[C@]1(C(=O)NS(=O)(=O)c2cccc3nc(C)ccc23)CC(C)(C)CO1 | 167 % Dual | 6.30 |  | 

Reference: patent publication US20220211692A1, “Modulators of the Cystic Fibrosis Transmembrane Conductance Regulator Protein and Methods of Use” (AbbVie Global Enterprises Ltd., priority 2021, published 2022)
